No constants are given. Whether binding was seen depends on the method and setting. For some assays here: In cells and extracts the contact can be indirect. Some entries that bind do so weakly or less than the wild type.
Experiments:
[1] = molecular target: Strep-tagged p65 (UniProt Q04206); test: co-IP; lysates of myometrial cells transfected with Strep-p65 and Halo-tagged PRA or PRB; immunoprecipitated with anti-Strep antibody and protein G-agarose at 4°C, lysis buffer 1% NP40, 150 mM NaCl, 50 mM Tris-HCl pH 7.4, 1 mM EDTA, 10% glycerol; Western blot with anti-Halo antibody
[2] = molecular target: progesterone receptor (endogenous, myometrial cells) (human (endogenous in primary myometrial cells)) (UniProt P06401); test: TF:TF array; unpublished data; IL-1β-stimulated myometrial cells without overexpression of either PR or p65

Chains of the proteins cited; added tags and fusions are not shown. Lines headed by an entry give the natural chain unless they say otherwise; changes in a name come on top. A line that says so, or that is headed by a name, gives the form on record, which may keep a tag or linker. Residues count along the entry.
UniProt Q04206: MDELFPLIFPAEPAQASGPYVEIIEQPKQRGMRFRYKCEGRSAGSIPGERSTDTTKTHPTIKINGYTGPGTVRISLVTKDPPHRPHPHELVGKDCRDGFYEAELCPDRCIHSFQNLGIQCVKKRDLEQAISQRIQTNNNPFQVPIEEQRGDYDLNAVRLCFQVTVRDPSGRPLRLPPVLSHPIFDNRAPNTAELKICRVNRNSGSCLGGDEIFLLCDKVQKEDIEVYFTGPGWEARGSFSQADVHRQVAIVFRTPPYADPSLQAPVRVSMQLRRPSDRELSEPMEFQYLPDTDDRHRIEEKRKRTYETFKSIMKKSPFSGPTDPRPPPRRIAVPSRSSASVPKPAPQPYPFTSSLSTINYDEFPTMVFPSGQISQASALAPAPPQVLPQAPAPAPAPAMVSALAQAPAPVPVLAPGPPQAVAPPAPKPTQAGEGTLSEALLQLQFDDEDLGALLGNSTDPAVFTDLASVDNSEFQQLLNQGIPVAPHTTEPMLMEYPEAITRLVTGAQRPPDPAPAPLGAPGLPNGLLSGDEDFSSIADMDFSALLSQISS
UniProt P06401: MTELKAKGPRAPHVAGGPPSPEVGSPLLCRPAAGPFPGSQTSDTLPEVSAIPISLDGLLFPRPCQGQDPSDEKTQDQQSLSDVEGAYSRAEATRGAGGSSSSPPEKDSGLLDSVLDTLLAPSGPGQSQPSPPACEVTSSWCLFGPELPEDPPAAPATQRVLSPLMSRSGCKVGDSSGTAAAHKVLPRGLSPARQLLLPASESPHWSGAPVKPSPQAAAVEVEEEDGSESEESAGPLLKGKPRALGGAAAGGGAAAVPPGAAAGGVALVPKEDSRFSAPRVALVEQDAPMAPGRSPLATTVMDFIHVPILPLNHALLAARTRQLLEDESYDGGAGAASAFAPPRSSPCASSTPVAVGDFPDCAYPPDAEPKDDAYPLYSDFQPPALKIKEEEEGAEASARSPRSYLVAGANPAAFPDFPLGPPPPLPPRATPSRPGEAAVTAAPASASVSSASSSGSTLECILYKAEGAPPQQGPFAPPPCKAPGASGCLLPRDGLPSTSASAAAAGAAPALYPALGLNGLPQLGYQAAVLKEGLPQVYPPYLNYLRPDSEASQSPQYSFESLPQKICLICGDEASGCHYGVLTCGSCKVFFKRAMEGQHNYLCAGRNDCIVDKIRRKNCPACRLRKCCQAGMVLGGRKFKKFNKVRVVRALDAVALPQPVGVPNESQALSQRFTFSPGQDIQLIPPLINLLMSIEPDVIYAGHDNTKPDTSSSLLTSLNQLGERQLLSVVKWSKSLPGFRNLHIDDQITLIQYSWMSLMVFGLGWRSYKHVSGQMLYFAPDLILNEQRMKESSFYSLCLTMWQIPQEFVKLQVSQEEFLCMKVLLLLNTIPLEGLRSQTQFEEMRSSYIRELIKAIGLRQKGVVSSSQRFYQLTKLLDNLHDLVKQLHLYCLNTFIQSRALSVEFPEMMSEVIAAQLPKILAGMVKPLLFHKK
Halo-tagged progesterone receptor A (PRA): residues 165-933 of P06401

Row | binding [1] | binding [2] | Substance
1 | no binding |  | Halo-tagged progesterone receptor A (PRA) (from UniProt P06401-2 1-769)
2 |  | binds | activated p65 (endogenous, IL-1β-stimulated myometrial cells) (from UniProt Q04206 1-551)
